{
  "source": "the supplement of paper PMC8728848",
  "binders": {"B1": {"name": "PX9961Q-bfa-504-27-504 (Bacteroides fragilis) (protein)", "chain": "NDWLDRKPADGIPSEDAITNYNDALTARTGMYDGIQGNSNATSYYGARMFYYGDVRADDMQARTQGMRSSSCYEMLYTVDDAPNMWNIPYNVIRRANRLIEAINEKKVTDATEAQIGKIYSEALVVRALVHFDLVRIYGMPYTADNGASLGVPVIVKPLERNDLPSRNTVAEVYTQVITDLTDAINSGYLAKDQTPGYINEWAAKALLTRVYLTKGDNENALKVAEDIITNSPYKLWTNEEYVNAWYKSNGAHTNEMIFEVVNASNDDWTDRNGIAYLLNENGYADAIVTKSFMNMLSQDPKDVRIGMVLPAQYDKDLQEEYGDAKIFINKFPADKDDVGEMRLNNLPLLRLSEVYLSAAEAAAKLGGHQDKAAKYLNEIVQRANPEAKAISEADATVERIILERRKEMIGEGQRYFDALRNNETIVRYKDEGDKGYHYSLIKESQSFDRTYFRAILPIPVDETNVNPNLRAQQNPGY"}},
  "assay_in_all_cases": "glycan array binding signal (z-score within array); higher = stronger binding",
  "conditions_in_all_cases": "glycan notation: IUPAC condensed, linker removed",
  "key": {"[1]": {"target": "Fuc(a1-2)Gal(b1-4)GlcNAc(b1-3)Gal(b1-4)GlcNAc(b1-3)Gal(b1-4)GlcNAc", "outline": "(§1)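 Negative Z-scores can be read as non-binding. The Z-score is calculated within each array and then averaged across arrays of one protein sequence at different concentrations or buffers and across linkers. Arrays, 3228 in all, were curated from the Consortium for Functional Glycomics database and kept only where the protein sequence was available.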"}, "[2]": {"target": "Fuc(a1-2)Gal(b1-4)GlcNAc(b1-3)GalNAc", "outline": "as §1"}, "[3]": {"target": "Fuc(a1-2)Gal(b1-4)GlcNAc(b1-3)[Fuc(a1-2)Gal(b1-4)GlcNAc(b1-6)]GalNAc", "outline": "as §1"}, "[4]": {"target": "Fuc(a1-2)Gal(b1-4)GlcNAc(b1-3)[Fuc(a1-3)[Gal(b1-4)]GlcNAc(b1-6)]Gal(b1-4)Glc", "outline": "as §1"}, "[5]": {"target": "Fuc(a1-2)Gal(b1-4)GlcNAc(b1-6)GalNAc", "outline": "as §1"}, "[6]": {"target": "Fuc(a1-2)Gal(b1-4)GlcNAc6S", "outline": "as §1"}, "[7]": {"target": "Fuc(a1-2)Gal(b1-4)[Fuc(a1-3)]GlcNAc", "outline": "as §1"}, "[8]": {"target": "Fuc(a1-2)Gal(b1-4)[Fuc(a1-3)]GlcNAc(b1-2)Man(a1-3)[Fuc(a1-2)Gal(b1-4)[Fuc(a1-3)]GlcNAc(b1-2)Man(a1-6)]Man(b1-4)GlcNAc(b1-4)[Fuc(a1-6)]GlcNAc", "outline": "as §1"}, "[9]": {"target": "Fuc(a1-2)Gal(b1-4)[Fuc(a1-3)]GlcNAc(b1-2)[Fuc(a1-2)Gal(b1-4)[Fuc(a1-3)]GlcNAc(b1-4)]Man(a1-3)[Fuc(a1-2)Gal(b1-4)[Fuc(a1-3)]GlcNAc(b1-2)Man(a1-6)]Man(b1-4)GlcNAc(b1-4)GlcNAc", "outline": "as §1"}, "[10]": {"target": "Fuc(a1-2)Gal(b1-4)[Fuc(a1-3)]GlcNAc(b1-3)Gal(b1-4)[Fuc(a1-3)]GlcNAc", "outline": "as §1"}, "[11]": {"target": "Fuc(a1-2)Gal(b1-4)[Fuc(a1-3)]GlcNAc(b1-3)Gal(b1-4)[Fuc(a1-3)]GlcNAc(b1-3)Gal(b1-4)[Fuc(a1-3)]GlcNAc", "outline": "as §1"}, "[12]": {"target": "Fuc(a1-2)Gal(b1-4)[Fuc(a1-3)]GlcNAc(b1-3)GalNAc", "outline": "as §1"}, "[13]": {"target": "Fuc(a1-2)Gal(b1-4)[Fuc(a1-3)]GlcNAc(b1-3)[Neu5Ac(a2-6)Gal(b1-4)GlcNAc(b1-6)]Gal(b1-4)Glc", "outline": "as §1"}, "[14]": {"target": "Fuc(a1-2)Gal3S(b1-4)GlcNAc", "outline": "as §1"}, "[15]": {"target": "Fuc(a1-2)Gal6S(b1-3)GlcNAc", "outline": "as §1"}, "[16]": {"target": "Fuc(a1-2)Gal6S(b1-3)GlcNAc6S", "outline": "as §1"}, "Fuc(a1-2)Gal6S(b1-4)Glc": {"target": "Fuc(a1-2)Gal6S(b1-4)Glc", "outline": "as §1"}, "[17]": {"target": "Fuc(a1-2)Gal6S(b1-4)Glc6S", "outline": "as §1"}, "Fuc(a1-2)[Gal(a1-3)]Gal": {"target": "Fuc(a1-2)[Gal(a1-3)]Gal", "outline": "as §1"}, "[18]": {"target": "Fuc(a1-2)[Gal(a1-3)]Gal(b1-3)GalNAc", "outline": "as §1"}, "[19]": {"target": "Fuc(a1-2)[Gal(a1-3)]Gal(b1-3)GalNAc(b1-3)Gal(a1-4)Gal(b1-4)Glc", "outline": "as §1"}, "[20]": {"target": "Fuc(a1-2)[Gal(a1-3)]Gal(b1-3)GlcNAc", "outline": "as §1"}, "[21]": {"target": "Fuc(a1-2)[Gal(a1-3)]Gal(b1-3)GlcNAc(b1-2)Man(a1-3)[Fuc(a1-2)[Gal(a1-3)]Gal(b1-3)GlcNAc(b1-2)Man(a1-6)]Man(b1-4)GlcNAc(b1-4)GlcNAc", "outline": "as §1"}, "[22]": {"target": "Fuc(a1-2)[Gal(a1-3)]Gal(b1-3)GlcNAc(b1-2)Man(a1-3)[Fuc(a1-2)[Gal(a1-3)]Gal(b1-3)GlcNAc(b1-2)Man(a1-6)]Man(b1-4)GlcNAc(b1-4)[Fuc(a1-6)]GlcNAc", "outline": "as §1"}, "[23]": {"target": "Fuc(a1-2)[Gal(a1-3)]Gal(b1-3)GlcNAc(b1-3)GalNAc", "outline": "as §1"}, "[24]": {"target": "Fuc(a1-2)[Gal(a1-3)]Gal(b1-3)GlcNAc(b1-6)GalNAc", "outline": "as §1"}, "[25]": {"target": "Fuc(a1-2)[Gal(a1-3)]Gal(b1-4)Glc", "outline": "as §1"}, "[26]": {"target": "Fuc(a1-2)[Gal(a1-3)]Gal(b1-4)GlcNAc", "outline": "as §1"}, "[27]": {"target": "Fuc(a1-2)[Gal(a1-3)]Gal(b1-4)GlcNAc(b1-2)Man", "outline": "as §1"}, "[28]": {"target": "Fuc(a1-2)[Gal(a1-3)]Gal(b1-4)GlcNAc(b1-2)Man(a1-3)[Fuc(a1-2)[Gal(a1-3)]Gal(b1-4)GlcNAc(b1-2)Man(a1-6)]Man(b1-4)GlcNAc(b1-4)GlcNAc", "outline": "as §1"}, "[29]": {"target": "Fuc(a1-2)[Gal(a1-3)]Gal(b1-4)GlcNAc(b1-2)Man(a1-3)[Fuc(a1-2)[Gal(a1-3)]Gal(b1-4)GlcNAc(b1-2)Man(a1-6)]Man(b1-4)GlcNAc(b1-4)[Fuc(a1-6)]GlcNAc", "outline": "as §1"}, "[30]": {"target": "Fuc(a1-2)[Gal(a1-3)]Gal(b1-4)GlcNAc(b1-3)GalNAc", "outline": "as §1"}, "[31]": {"target": "Fuc(a1-2)[Gal(a1-3)]Gal(b1-4)GlcNAc(b1-3)[Fuc(a1-2)[Gal(a1-3)]Gal(b1-4)GlcNAc(b1-6)]GalNAc", "outline": "as §1"}, "[32]": {"target": "Fuc(a1-2)[Gal(a1-3)]Gal(b1-4)GlcNAc(b1-6)GalNAc", "outline": "as §1"}, "[33]": {"target": "Fuc(a1-2)[Gal(a1-3)]Gal(b1-4)[Fuc(a1-3)]Glc", "outline": "as §1"}, "[34]": {"target": "Fuc(a1-2)[Gal(a1-3)]Gal(b1-4)[Fuc(a1-3)]GlcNAc", "outline": "as §1"}, "[35]": {"target": "Fuc(a1-2)[Gal(a1-3)]Gal(b1-4)[Fuc(a1-3)]GlcNAc(b1-3)GalNAc", "outline": "as §1"}},
  "note": "Some of the results follow.",
  "data": [
    {"binder": "B1", "values": [
      {"measurement": "glycan array binding signal (z-score)", "setting": "[1]", "value": 0.169},
      {"measurement": "glycan array binding signal (z-score)", "setting": "[2]", "value": -0.606},
      {"measurement": "glycan array binding signal (z-score)", "setting": "[3]", "value": 0.788},
      {"measurement": "glycan array binding signal (z-score)", "setting": "[4]", "value": 0.172},
      {"measurement": "glycan array binding signal (z-score)", "setting": "[5]", "value": 0.145},
      {"measurement": "glycan array binding signal (z-score)", "setting": "[6]", "value": 0.092},
      {"measurement": "glycan array binding signal (z-score)", "setting": "[7]", "value": -0.307},
      {"measurement": "glycan array binding signal (z-score)", "setting": "[8]", "value": -0.325},
      {"measurement": "glycan array binding signal (z-score)", "setting": "[9]", "value": 0.302},
      {"measurement": "glycan array binding signal (z-score)", "setting": "[10]", "value": -0.681},
      {"measurement": "glycan array binding signal (z-score)", "setting": "[11]", "value": 0.611},
      {"measurement": "glycan array binding signal (z-score)", "setting": "[12]", "value": 0.086},
      {"measurement": "glycan array binding signal (z-score)", "setting": "[13]", "value": 0.719},
      {"measurement": "glycan array binding signal (z-score)", "setting": "[14]", "value": -0.05},
      {"measurement": "glycan array binding signal (z-score)", "setting": "[15]", "value": 0.457},
      {"measurement": "glycan array binding signal (z-score)", "setting": "[16]", "value": -0.154},
      {"measurement": "glycan array binding signal (z-score)", "setting": "Fuc(a1-2)Gal6S(b1-4)Glc", "value": -0.727},
      {"measurement": "glycan array binding signal (z-score)", "setting": "[17]", "value": -0.797},
      {"measurement": "glycan array binding signal (z-score)", "setting": "Fuc(a1-2)[Gal(a1-3)]Gal", "value": -0.086},
      {"measurement": "glycan array binding signal (z-score)", "setting": "[18]", "value": 0.904},
      {"measurement": "glycan array binding signal (z-score)", "setting": "[19]", "value": 0.514},
      {"measurement": "glycan array binding signal (z-score)", "setting": "[20]", "value": -0.602},
      {"measurement": "glycan array binding signal (z-score)", "setting": "[21]", "value": 0.366},
      {"measurement": "glycan array binding signal (z-score)", "setting": "[22]", "value": -0.214},
      {"measurement": "glycan array binding signal (z-score)", "setting": "[23]", "value": 0.054},
      {"measurement": "glycan array binding signal (z-score)", "setting": "[24]", "value": -0.779},
      {"measurement": "glycan array binding signal (z-score)", "setting": "[25]", "value": 0.106},
      {"measurement": "glycan array binding signal (z-score)", "setting": "[26]", "value": -0.199},
      {"measurement": "glycan array binding signal (z-score)", "setting": "[27]", "value": 0.057},
      {"measurement": "glycan array binding signal (z-score)", "setting": "[28]", "value": 0.64},
      {"measurement": "glycan array binding signal (z-score)", "setting": "[29]", "value": 0.064},
      {"measurement": "glycan array binding signal (z-score)", "setting": "[30]", "value": -0.166},
      {"measurement": "glycan array binding signal (z-score)", "setting": "[31]", "value": 1.3},
      {"measurement": "glycan array binding signal (z-score)", "setting": "[32]", "value": -0.541},
      {"measurement": "glycan array binding signal (z-score)", "setting": "[33]", "value": -0.854},
      {"measurement": "glycan array binding signal (z-score)", "setting": "[34]", "value": -0.22},
      {"measurement": "glycan array binding signal (z-score)", "setting": "[35]", "value": -0.548}
    ]}
  ]
}
